In the supplement of paper PMC8728848:
The list shows a part of the results.

Experiments:
Assay in all cases: glycan array binding signal (z-score within array); higher = stronger binding
Conditions in all cases: glycan notation: IUPAC condensed, linker removed
Fuc(a1-2)Gal = target: Fuc(a1-2)Gal
Outline: (§1)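 Glycan array data were curated from 3228 arrays in the Consortium for Functional Glycomics database and kept only where the protein sequence was available. Glycan names were converted to IUPAC-condensed notation, and columns mapping to the same glycan were averaged. The binding signal is a within-array Z-score, averaged across arrays of the same protein sequence at different concentrations or buffers and across linkers. Negative Z-scores can be read as non-binding.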

Fuc(a1-2)Gal(b1-3)GalNAc = target: Fuc(a1-2)Gal(b1-3)GalNAc
Outline: as §1

[1] = target: Fuc(a1-2)Gal(b1-3)GalNAc(a1-3)[Fuc(a1-2)]Gal(b1-4)Glc
Outline: as §1

[2] = target: Fuc(a1-2)Gal(b1-3)GalNAc(a1-3)[Fuc(a1-2)]Gal(b1-4)GlcNAc
Outline: as §1

[3] = target: Fuc(a1-2)Gal(b1-3)GalNAc(b1-3)Gal
Outline: as §1

[4] = target: Fuc(a1-2)Gal(b1-3)GalNAc(b1-3)Gal(a1-4)Gal(b1-4)Glc
Outline: as §1

[5] = target: Fuc(a1-2)Gal(b1-3)GalNAc(b1-4)[Neu5Ac(a2-3)]Gal(b1-4)Glc
Outline: as §1

Fuc(a1-2)Gal(b1-3)GlcNAc = target: Fuc(a1-2)Gal(b1-3)GlcNAc
Outline: as §1

[6] = target: Fuc(a1-2)Gal(b1-3)GlcNAc(b1-2)Man(a1-3)[Fuc(a1-2)Gal(b1-3)GlcNAc(b1-2)Man(a1-6)]Man(b1-4)GlcNAc(b1-4)GlcNAc
Outline: as §1

[7] = target: Fuc(a1-2)Gal(b1-3)GlcNAc(b1-2)Man(a1-3)[Fuc(a1-2)Gal(b1-3)GlcNAc(b1-2)Man(a1-6)]Man(b1-4)GlcNAc(b1-4)[Fuc(a1-6)]GlcNAc
Outline: as §1

[8] = target: Fuc(a1-2)Gal(b1-3)GlcNAc(b1-3)Gal(b1-4)Glc
Outline: as §1

[9] = target: Fuc(a1-2)Gal(b1-3)GlcNAc(b1-3)GalNAc
Outline: as §1

[10] = target: Fuc(a1-2)Gal(b1-3)GlcNAc(b1-3)[Fuc(a1-2)Gal(b1-3)GlcNAc(b1-6)]GalNAc
Outline: as §1

[11] = target: Fuc(a1-2)Gal(b1-3)GlcNAc(b1-3)[Gal(b1-4)GlcNAc(b1-6)]Gal(b1-4)Glc
Outline: as §1

[12] = target: Fuc(a1-2)Gal(b1-3)GlcNAc(b1-3)[Neu5Ac(a2-6)Gal(b1-4)GlcNAc(b1-6)]Gal(b1-4)Glc
Outline: as §1

[13] = target: Fuc(a1-2)Gal(b1-3)GlcNAc6S
Outline: as §1

[14] = target: Fuc(a1-2)Gal(b1-3)[Fuc(a1-4)]GlcNAc
Outline: as §1

[15] = target: Fuc(a1-2)Gal(b1-3)[Fuc(a1-4)]GlcNAc(b1-2)Man(a1-3)[Fuc(a1-2)Gal(b1-3)[Fuc(a1-4)]GlcNAc(b1-2)Man(a1-3)]Man(b1-4)GlcNAc(b1-4)GlcNAc
Outline: as §1

[16] = target: Fuc(a1-2)Gal(b1-3)[Fuc(a1-4)]GlcNAc(b1-2)Man(a1-3)[Fuc(a1-2)Gal(b1-3)[Fuc(a1-4)]GlcNAc(b1-2)Man(a1-6)]Man(b1-4)GlcNAc(b1-4)[Fuc(a1-6)]GlcNAc(b1-4)[Fuc(a1-6)]GlcNAc
Outline: as §1

[17] = target: Fuc(a1-2)Gal(b1-3)[Fuc(a1-4)]GlcNAc(b1-3)[Fuc(a1-3)[Gal(b1-4)]GlcNAc(b1-6)]Gal(b1-4)Glc
Outline: as §1

[18] = target: Fuc(a1-2)Gal(b1-3)[Fuc(a1-4)]GlcNAc(b1-3)[Gal(b1-4)GlcNAc(b1-6)]Gal(b1-4)Glc
Outline: as §1

[19] = target: Fuc(a1-2)Gal(b1-4)Fuc(a1-3)]GlcNAc(b1-2)Man(a1-3)[Fuc(a1-2)Gal(b1-4)[Fuc(a1-3)]GlcNAc(b1-2)Man(a1-6)]Man(b1-4)GlcNAc(b1-4)GlcNAc
Outline: as §1

Fuc(a1-2)Gal(b1-4)Glc = target: Fuc(a1-2)Gal(b1-4)Glc
Outline: as §1

Fuc(a1-2)Gal(b1-4)Glc6S = target: Fuc(a1-2)Gal(b1-4)Glc6S
Outline: as §1

Fuc(a1-2)Gal(b1-4)GlcNAc = target: Fuc(a1-2)Gal(b1-4)GlcNAc
Outline: as §1

[20] = target: Fuc(a1-2)Gal(b1-4)GlcNAc(b1-2)Man
Outline: as §1

[21] = target: Fuc(a1-2)Gal(b1-4)GlcNAc(b1-2)Man(a1-3)[Fuc(a1-2)Gal(b1-4)GlcNAc(b1-2)Man(a1-6)]Man(b1-4)GlcNAc(b1-4)GlcNAc
Outline: as §1

[22] = target: Fuc(a1-2)Gal(b1-4)GlcNAc(b1-2)Man(a1-3)[Fuc(a1-2)Gal(b1-4)GlcNAc(b1-2)Man(a1-6)]Man(b1-4)GlcNAc(b1-4)[Fuc(a1-6)]GlcNAc
Outline: as §1

[23] = target: Fuc(a1-2)Gal(b1-4)GlcNAc(b1-2)[Fuc(a1-2)Gal(b1-4)GlcNAc(b1-4)]Man(a1-3)[Fuc(a1-2)Gal(b1-4)GlcNAc(b1-2)Man(a1-6)]Man(b1-4)GlcNAc(b1-4)GlcNAc
Outline: as §1

[24] = target: Fuc(a1-2)Gal(b1-4)GlcNAc(b1-3)Gal(b1-4)GlcNAc
Outline: as §1

[25] = target: Fuc(a1-2)Gal(b1-4)GlcNAc(b1-3)Gal(b1-4)GlcNAc(b1-2)Man(a1-3)[Fuc(a1-2)Gal(b1-4)GlcNAc(b1-3)Gal(b1-4)GlcNAc(b1-2)Man(a1-6)]Man(b1-4)GlcNAc(b1-4)GlcNAc
Outline: as §1

[26] = target: Fuc(a1-2)Gal(b1-4)GlcNAc(b1-3)Gal(b1-4)GlcNAc(b1-3)Gal(b1-4)GlcNAc
Outline: as §1

[27] = target: Fuc(a1-2)Gal(b1-4)GlcNAc(b1-3)GalNAc
Outline: as §1

[28] = target: Fuc(a1-2)Gal(b1-4)GlcNAc(b1-3)[Fuc(a1-2)Gal(b1-4)GlcNAc(b1-6)]GalNAc
Outline: as §1

[29] = target: Fuc(a1-2)Gal(b1-4)GlcNAc(b1-3)[Fuc(a1-3)[Gal(b1-4)]GlcNAc(b1-6)]Gal(b1-4)Glc
Outline: as §1

[30] = target: Fuc(a1-2)Gal(b1-4)GlcNAc(b1-6)GalNAc
Outline: as §1

[31] = target: Fuc(a1-2)Gal(b1-4)GlcNAc6S
Outline: as §1

B1: Drgal1 (Danio rerio) (protein)
chain: MAGVLIQNMSFKVGQTLTITGVPKPDSTNFAINIGHSPEDIALHMNPRFDAHGDQCTIVCNSFQSGSWCEEHRDDNFPFIQDKEFQIKITFTNEEFLVTLPDGSEIHFPNRQGSEKYKYMYFEGEVRIQGVEIK
glycan array binding signal (z-score) (Fuc(a1-2)Gal): -0.138 | glycan array binding signal (z-score) (Fuc(a1-2)Gal(b1-3)GalNAc): -0.255 | glycan array binding signal (z-score) [1]: -0.59 | glycan array binding signal (z-score) [2]: -0.433 | glycan array binding signal (z-score) [3]: -0.176 | glycan array binding signal (z-score) [4]: -0.101 | glycan array binding signal (z-score) [5]: -0.367 | glycan array binding signal (z-score) (Fuc(a1-2)Gal(b1-3)GlcNAc): -0.486 | glycan array binding signal (z-score) [6]: 0.528 | glycan array binding signal (z-score) [7]: 0.673 | glycan array binding signal (z-score) [8]: -0.304 | glycan array binding signal (z-score) [9]: -0.612 | glycan array binding signal (z-score) [10]: -0.218 | glycan array binding signal (z-score) [11]: -0.134 | glycan array binding signal (z-score) [12]: -0.466 | glycan array binding signal (z-score) [13]: -0.452 | glycan array binding signal (z-score) [14]: -0.637 | glycan array binding signal (z-score) [15]: -0.29 | glycan array binding signal (z-score) [16]: -0.396 | glycan array binding signal (z-score) [17]: -0.415 | glycan array binding signal (z-score) [18]: 0.383 | glycan array binding signal (z-score) [19]: 0.914 | glycan array binding signal (z-score) (Fuc(a1-2)Gal(b1-4)Glc): -0.299 | glycan array binding signal (z-score) (Fuc(a1-2)Gal(b1-4)Glc6S): -0.543 | glycan array binding signal (z-score) (Fuc(a1-2)Gal(b1-4)GlcNAc): -0.353 | glycan array binding signal (z-score) [20]: -0.09 | glycan array binding signal (z-score) [21]: 0.669 | glycan array binding signal (z-score) [22]: -0.202 | glycan array binding signal (z-score) [23]: -0.434 | glycan array binding signal (z-score) [24]: -0.642 | glycan array binding signal (z-score) [25]: 1.25 | glycan array binding signal (z-score) [26]: 0.077 | glycan array binding signal (z-score) [27]: 0.016 | glycan array binding signal (z-score) [28]: -0.246 | glycan array binding signal (z-score) [29]: -0.404 | glycan array binding signal (z-score) [30]: -0.575 | glycan array binding signal (z-score) [31]: -0.48
